The whole screen tested about 330,000 compounds, of which about 7,700 (2.3%) were called active. The shares of active, inactive and inconclusive entries below differ from those in the screen. Calls follow the shape of the dose curve; as a rule, active = well fitted inhibition curve with a large enough effect; inconclusive = small, poorly fitted or top-dose-only effect, or effect the other way; inactive = flat fitted curve, though single readings scatter. A potency beside an inconclusive call is a rough fit, not a confirmed value.
assay: qHTS screen for small molecules that inhibit ELG1-dependent DNA repair in human embryonic kidney (HEK293T) cells expressing luciferase-tagged ELG1; conditions: HEK293T ELG1-luciferase reporter, luminescence, 16 h, DNA damage induced by 5-fluorouridine; activity change, negative = inhibition: at 46.1 µM (top of the series); also: nearly all actives have a fitted effect of over 55% in size
Method in brief: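 Step one: seed 2,000 cells per well. Step two: pin-transfer compound or DMSO alongside 5-fluorouridine. Step three: incubate 16 hr, 37 °C, 5% CO2. Step four: add ONE-Glo, wait 30 min, read luminescence.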
% is scaled to controls: 0 for no effect and ±100 for the full control effect; potency is read from the fitted curve at half-maximal effect.

SMILES	activity change, negative = inhibition	Potency
Cc1cc(C)c(C(=O)COC(=O)c2ccc([N+](=O)[O-])o2)cc1C	inactive: -4.87%	
Cc1ccc(OCC(=O)Nc2ccc(F)cc2)cc1C		inconclusive: 16.4 µM [activator, single point]
COC(=O)c1c(NC(=O)c2cccc([N+](=O)[O-])c2)sc(C(N)=O)c1C		inconclusive: 6.51 µM [inhibitor, single point]
COc1ccc2nc(SCc3ccccc3C)nc(C)c2c1		inconclusive: 14.6 µM [activator, partial curve]
CN1CCN(c2nc3ccccc3nc2C(C#N)S(=O)(=O)c2ccccc2)CC1 (centres undefined)		active: 8.2 µM
O=Cc1ccccc1OCCOc1ccccc1C=O		inconclusive: 23.1 µM [activator, single point]
Cc1c(/C(O)=C2/C(=O)C(=O)N(Cc3cccnc3)C2c2ccccn2)cnn1-c1ccccc1 (centres undefined)		inconclusive: 13 µM [activator, partial curve]
CN(C)c1nc(-c2ccccc2)ncc1S(=O)(=O)c1ccccc1	inactive: -4.12%	
Cc1ccc(C)c(N(CC(=O)NCc2ccco2)C(=O)CNS(=O)(=O)c2ccc(F)cc2)c1		inconclusive: 0.259 µM [inhibitor, single point]
CC(=O)c1cccc(NC(=O)CSc2nc3ccccc3c(=O)n2CCCN2CCOCC2)c1	inactive: -25.3%	
COc1cccc(OCc2cc(C(=O)NC3CCOCC3)no2)c1		inconclusive: 20.6 µM [activator, partial curve]
COc1ccc(C(=O)OCC(=O)NC2CCCC2)c(OC)c1OC		inconclusive: 1.3 µM [activator, partial curve, poor fit]
O=C1[C@@H]2Cc3c([nH]c4ccccc34)C(c3ccc([N+](=O)[O-])cc3)N2C(=O)CN1C1CC1 (some centres undefined)		inconclusive: 23.1 µM [inhibitor, partial curve, poor fit]
CN(C)N1C(N)=C(C#N)C(c2ccccc2F)C2=C1CC(C)(C)CC2=O (centres undefined)		inconclusive: 23.1 µM [inhibitor, single point]
Cc1ccc(C(=O)Oc2ccc(-c3nnco3)cc2)o1	inactive: 22%	
CCCCCCn1c(O)c(/C=C2\C=NN=C2c2ccccc2)sc1=S	inactive: -0.298%	
Cc1ccc(N(CC(=O)Nc2ccccc2-c2ccccc2)S(=O)(=O)c2ccccc2)cc1		inconclusive: 18.4 µM [activator, single point]
COc1ccc(NC(=O)c2ccc(CN3CCN(c4ccccc4)CC3)cc2)cc1OC		inconclusive: 18.4 µM [inhibitor, partial curve, poor fit]
CCCc1cc(=O)oc2c(C)c(OCC(=O)Nc3ccccn3)ccc12		inconclusive: 14.6 µM [activator, partial curve]
O=C(Cn1nc(-c2ccccc2)c2ccccc2c1=O)Nc1ccc(F)cc1	inactive: 2.66%	
CC1Oc2ccccc2C=C1/C=N/NC(=O)c1ccncc1 (centres undefined)		inconclusive: 25.9 µM [inhibitor, single point]
CS(=O)(=O)c1ccc2sc(NC(=O)c3cc4ccccc4o3)nc2c1		inconclusive: 5.8 µM [activator, partial curve]
Cc1cc(O)c(/C=N/Nc2cccc(Cl)c2)c(=O)o1	inactive: -0.198%	

Of the compounds above, these have nitrogen in an aromatic ring:
SMILES	activity change, negative = inhibition	Potency
COc1ccc2nc(SCc3ccccc3C)nc(C)c2c1		inconclusive: 14.6 µM [activator, partial curve]
CN1CCN(c2nc3ccccc3nc2C(C#N)S(=O)(=O)c2ccccc2)CC1 (centres undefined)		active: 8.2 µM
Cc1c(/C(O)=C2/C(=O)C(=O)N(Cc3cccnc3)C2c2ccccn2)cnn1-c1ccccc1 (centres undefined)		inconclusive: 13 µM [activator, partial curve]
CN(C)c1nc(-c2ccccc2)ncc1S(=O)(=O)c1ccccc1	inactive: -4.12%	
CC(=O)c1cccc(NC(=O)CSc2nc3ccccc3c(=O)n2CCCN2CCOCC2)c1	inactive: -25.3%	
COc1cccc(OCc2cc(C(=O)NC3CCOCC3)no2)c1		inconclusive: 20.6 µM [activator, partial curve]
O=C1[C@@H]2Cc3c([nH]c4ccccc34)C(c3ccc([N+](=O)[O-])cc3)N2C(=O)CN1C1CC1 (some centres undefined)		inconclusive: 23.1 µM [inhibitor, partial curve, poor fit]
Cc1ccc(C(=O)Oc2ccc(-c3nnco3)cc2)o1	inactive: 22%	
CCCCCCn1c(O)c(/C=C2\C=NN=C2c2ccccc2)sc1=S	inactive: -0.298%	
CCCc1cc(=O)oc2c(C)c(OCC(=O)Nc3ccccn3)ccc12		inconclusive: 14.6 µM [activator, partial curve]
O=C(Cn1nc(-c2ccccc2)c2ccccc2c1=O)Nc1ccc(F)cc1	inactive: 2.66%	
CC1Oc2ccccc2C=C1/C=N/NC(=O)c1ccncc1 (centres undefined)		inconclusive: 25.9 µM [inhibitor, single point]
CS(=O)(=O)c1ccc2sc(NC(=O)c3cc4ccccc4o3)nc2c1		inconclusive: 5.8 µM [activator, partial curve]

(listing goes on)

SMILES	activity change, negative = inhibition	Potency
C=CCNC(=O)c1nn2cccnc2c1Cl		inconclusive: 29.1 µM [activator, single point]
O=C(NCc1cccnc1)/C(=C\c1ccc(-c2cccc(Cl)c2)o1)S(=O)(=O)c1ccccc1		active: 16.4 µM
Cc1cccc(N2CC(C(=O)Nc3cccc(S(=O)(=O)N4CCCCC4)c3)CC2=O)c1C (centres undefined)		inconclusive: 16.4 µM [inhibitor, single point]
Cc1ccc(S(=O)(=O)N(C)C[C@@H]2Oc3ccc(NC(=O)Nc4cccc5ccccc45)cc3C(=O)N([C@H](C)CO)C[C@H]2C)cc1		inconclusive: 3.66 µM [inhibitor, partial curve]
O=C(Nc1ccc(Nc2ccccc2)cc1)Nc1ccccc1Cl		inconclusive: 2.06 µM [activator, partial curve]
CC(=O)N(CCCCN1C(=O)c2ccccc2C1=O)c1ccc(C)cc1		inconclusive: 25.9 µM [inhibitor, partial curve, poor fit]
Cc1ccc(C=Nc2cccnc2N)cc1		inconclusive: 18.4 µM [activator, partial curve, poor fit]
O=C(NCCN1CCN(c2ccccc2)CC1)C1CCN(S(=O)(=O)c2cccc3nsnc23)CC1		inconclusive: 4.61 µM [inhibitor, full curve]
Nc1c(C(=O)NC2CC2)c2nc3ccccc3nc2n1-c1ccc2c(c1)OCO2		active: 16.4 µM
COc1ccccc1OCc1cc(-c2ccccc2)no1		inconclusive: 14.6 µM [activator, partial curve]
CCOC(=O)CC(=O)Nc1nc2ccccc2s1		inconclusive: 29.1 µM [activator, partial curve, poor fit]
CC1CCCN(C(=O)c2sc3cc([N+](=O)[O-])ccc3c2Cl)C1 (centres undefined)		inconclusive: 20.6 µM [activator, partial curve, poor fit]
Cn1cc(Cl)cc(C(=O)Nc2ccccc2)c1=O		inconclusive: 20.6 µM [activator, partial curve]
COC(=O)c1ccc(CNC(=O)CSC(C)C(=O)Nc2cc(C)on2)cc1 (centres undefined)	inactive: 0.745%	
CCCc1c(-c2ccc(O)cc2)nn(-c2ccc(O)cc2)c1-c1ccc(O)cc1	inactive: -18.3%	
Cc1cc(NC(=O)c2cccc(Cl)c2)n[nH]1		inconclusive: 12.6 µM [activator, single point]
CC(NCc1ccc(S(N)(=O)=O)cc1)C(=O)Nc1cc([N+](=O)[O-])ccc1Cl (centres undefined)	inactive: -0.523%	
COc1ccc(C(=O)COC(=O)c2ccco2)cc1		inconclusive: 11.2 µM [activator, partial curve]
Cc1ccc(NC(=O)c2ccc3nc[nH]c3c2)cc1C		inconclusive: 6.51 µM [activator, partial curve]
COc1ccc(-c2cc(C(=O)NCCN3CCOCC3)c3ccccc3n2)cc1OC	inactive: -13.2%	
COc1ccc(C(=O)N/C(=C\c2cn(C)c3ccccc23)C(=O)NCCCN2CCOCC2)cc1OC	inactive: -27.4%	
CCC(=O)Nc1nc(-c2ccccc2)nc(SC)c1C(C)=O		inconclusive: 25.9 µM [inhibitor, single point]
NS(=O)(=O)c1ccc(CNC(=O)C(c2ccccc2)c2ccccc2)cc1	inactive: -4.92%	

SMILES	activity change, negative = inhibition	Potency
O=C(NCCc1ccc2c(c1)OCCO2)c1ccc(F)cc1		inconclusive: 8.2 µM [activator, partial curve, poor fit]
O=[N+]([O-])c1ccc(N2CCN(C(=S)Nc3cccc(F)c3)CC2)cc1		inconclusive: 29.1 µM [inhibitor, single point]
CC(C)c1ccc(NC2CCCN(C(=O)c3ccc(N4CCOCC4)cc3)C2)cc1 (centres undefined)	inactive: -13.9%	
O=C(c1cc(-c2cccs2)nc2ccccc12)N1CCN(S(=O)(=O)c2ccccc2)CC1		active: 16.4 µM
CCOC(=O)C(C)Oc1ccc(NC(=O)C(Cl)Cl)cc1 (centres undefined)		inconclusive: 16.4 µM [activator, partial curve, poor fit]
O=C(NCc1ccccc1)N(Cc1cc2cc3c(cc2[nH]c1=O)OCCO3)CC1CCCO1 (centres undefined)		inconclusive: 23.1 µM [inhibitor, partial curve, poor fit]
CS(=O)(=O)c1ccc2nc(NC(=O)Nc3ccccc3F)sc2c1		inconclusive: 0.461 µM [activator, full curve]
CC(Oc1cccc(NC(=O)c2cccs2)c1)C(=O)c1ccccc1 (centres undefined)		inconclusive: 29.1 µM [inhibitor, single point]
COc1cc(OC)c(OC)cc1/C=N/NC(=S)NCCN1CCOCC1	inactive: -1.4%	
COc1ccc(S(=O)(=O)N2CCCC2)cc1OC	inactive: -7.12%	
Cc1nc2cc(C(=O)OCC(=O)NC(C)C(C)C)ccc2n1-c1ccccc1 (centres undefined)		inconclusive: 16.4 µM [inhibitor, single point]
N#C/C(=C\c1cccc([N+](=O)[O-])c1)C(=O)NCc1ccc(Cl)cc1		inconclusive: 29.1 µM [activator, single point]
O=C(NCc1ccncc1)NC1CCCCC1	inactive: 8.15%	
C[C@@H](C(=O)NCc1ccccn1)[C@H]1C[C@]1(C)[C@H](NC(=O)OCc1ccccc1)c1ccccc1		inconclusive: 20.6 µM [inhibitor, single point]
COC(=O)C(C)n1nnc2sc(-c3ccccc3)cc2c1=O (centres undefined)		inconclusive: 11.6 µM [activator, partial curve]
CC1CCN(CCCCOc2ccccc2[N+](=O)[O-])CC1	inactive: 1.04%	
COc1cc(C(=S)N2CCOCC2)cc(OC)c1OC(=O)c1ccc(C)cc1		inconclusive: 22.4 µM [inhibitor, single point]
CCN(CC(=O)NCc1ccc(Cl)cc1)C(=O)c1cc(S(=O)(=O)NCc2ccccc2)ccc1C		inconclusive: 8.2 µM [inhibitor, single point]
CCCN(CCC)S(=O)(=O)c1ccc(C(=O)Nc2nnc(COC)o2)cc1		active: 18.3 µM
CCN(C(=O)c1ccc2c(c1)OCO2)C12CC3CC(CC(C3)C1)C2	inactive: -5.04%	
O=c1cc(Cn2nnc(-c3ccc(Cl)cc3)n2)nc2sccn12		inconclusive: 18.4 µM [inhibitor, single point]
CCc1nc2c(sc3nc(N4CCOCC4)c4c(c32)CC(C)(C)OC4)c(=O)o1	inactive: 10.1%	
CCOC(=O)c1c(NC(=O)C2COc3ccccc3O2)sc2c1CC(C)(C)NC2(C)C (centres undefined)		inconclusive: 29.1 µM [inhibitor, single point]

— PubChem BioAssay AID504467 (National Center for Advancing Translational Sciences (NCATS), 2011)
